Test results taken from article PMC4970767.

By UniProt entry, the sequences of proteins in these tests, tags left out. Where a name states a change or a piece, a line headed by the entry shows the natural chain unless it says otherwise. Residues count along the entry.
UniProt P20029, residues 20-655: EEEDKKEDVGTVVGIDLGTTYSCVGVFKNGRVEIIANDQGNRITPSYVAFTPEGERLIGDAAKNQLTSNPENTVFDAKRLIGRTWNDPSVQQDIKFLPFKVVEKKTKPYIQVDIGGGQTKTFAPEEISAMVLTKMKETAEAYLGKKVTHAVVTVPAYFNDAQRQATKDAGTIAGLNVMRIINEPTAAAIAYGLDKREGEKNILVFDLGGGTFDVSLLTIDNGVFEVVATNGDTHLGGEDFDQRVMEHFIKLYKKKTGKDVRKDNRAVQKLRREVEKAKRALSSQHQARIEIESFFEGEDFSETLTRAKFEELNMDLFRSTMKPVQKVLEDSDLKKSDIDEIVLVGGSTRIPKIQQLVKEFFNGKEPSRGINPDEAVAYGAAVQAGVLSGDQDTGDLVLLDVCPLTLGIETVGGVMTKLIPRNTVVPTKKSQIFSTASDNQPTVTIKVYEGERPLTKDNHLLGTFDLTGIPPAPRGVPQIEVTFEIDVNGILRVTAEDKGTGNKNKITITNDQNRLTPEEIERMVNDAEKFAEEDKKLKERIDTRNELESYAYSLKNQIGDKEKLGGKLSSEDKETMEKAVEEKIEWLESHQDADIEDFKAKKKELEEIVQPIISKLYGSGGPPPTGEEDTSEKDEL
UniProt Q60932: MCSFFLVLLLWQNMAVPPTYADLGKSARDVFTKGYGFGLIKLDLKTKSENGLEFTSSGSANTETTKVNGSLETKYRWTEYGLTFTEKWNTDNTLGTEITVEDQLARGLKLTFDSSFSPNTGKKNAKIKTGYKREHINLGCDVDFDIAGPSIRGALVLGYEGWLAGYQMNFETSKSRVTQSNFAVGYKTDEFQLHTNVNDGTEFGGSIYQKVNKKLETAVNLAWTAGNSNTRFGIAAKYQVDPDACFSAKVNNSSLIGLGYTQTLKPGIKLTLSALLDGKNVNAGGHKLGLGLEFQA

Target: Grp78 (Bip), mouse testis (mouse (endogenous in testis)) (UniProt P20029)
Experiment: co-IP; mouse testis lysate (400 ug protein, RIPA lysis buffer with 1% NP-40, 0.15 M NaCl, pH 7.4), precleared with normal rabbit serum, antibody overnight at room temperature, Protein A/G PLUS-agarose, Western blot

VDAC1, mouse testis (from UniProt Q60932)
binding: binds

Results are given in words; binding and its absence hold for the method and conditions named. Binding seen in cells or lysates may run through a third protein. Binding can be weak; no strength is given.
